Patent EP0393104B1, “MEASUREMENT OF PGE 2 (PROSTAGLANDIN E 2) LEVELS IN PATIENTS WITH CHRONIC INFLAMMATORY BOWEL DISEASE” (priority 1987, dated 1989)
Like-named read-outs stand apart in the source and are kept apart here. The name of at least one read-out is uncertain.

Assay: HPLC of ADS, 5-ASA and Ac-5-ASA in serum
Type: in vivo, patients
Conditions: read-out: Mean concentrations in serum
Method: Aone year treatment period was planned including scheduled visits at two weeks and at two, four, six, eight, ten, and 12 months, in addition to in-between visits, if needed. Before entry and at each visit the clinical disease activity was assessed (see below) and a laboratory screening was done. This included blood haemoglobin, reticulocyte count, erythrocyte sedimentation rate, leucocyte count, leucocyte differential count, platelet count, serum concentrations of Na, K, Ca, albumin, creatinine, urea, alanine aminotransferase, lactate dehydrogenase, alkaline phosphatase, bilirubin, and plasma prothrombin, in addition to urine analysis for protein and glucose and microscopy for erythrocytes, leukocytes, and casts.
The lower detection limits in serum and in faecal dialysates were 1.0 umol/I and 6.0 umol/l, respectively. Prostaglandin E2 was measured by the radioimmunologic method, referred to above, validated by gas chromatography-mass spectrometry. These measurements were done blindly and independently of the assessment of disease activity and clinicians were unaware of the results until the data had been completed.

O=C(O)c1cc(N=Nc2ccc(O)c(C(=O)O)c2)ccc1O [Olsalazine, disodium-azodisalicylate]
concentration (active (C1-C3) ulcerative colitis, Olsalazine dose/day 1 g): 10 µM | concentration (active (C1-C3) ulcerative colitis, Olsalazine dose/day 2 g): 16 µM | concentration (active (C1-C3) ulcerative colitis, Olsalazine dose/day 3 g): 21 µM | concentration (active (C1-C3) ulcerative colitis, Olsalazine dose/day 4 g): 26 µM | concentration (inactive (C0) ulcerative colitis, Olsalazine dose/day 1 g): 9 µM | concentration (inactive (C0) ulcerative colitis, Olsalazine dose/day 2 g): 17 µM | concentration (inactive (C0) ulcerative colitis, Olsalazine dose/day 3 g): 22 µM | concentration (inactive (C0) ulcerative colitis, Olsalazine dose/day 4 g): 24 µM
